No constants are given. Whether binding was seen depends on the method and setting. Some results given as binding are weak or reduced against the parent protein; the word gives no strength.
Target: cynomolgus TREM1 on cells (cynomolgus)
Test: flow cytometry, directly conjugated antibody on red-cell-lysed cynomolgus blood, gated on monocytes, Fc receptors blocked; TREM1 taken as the target of PI-4170 (not given)

- binding: binds
B1: PI-4170 (antibody, human IgG1, kappa, V domains shown)
VH: EVQLVESGGGLVQPGGSLKLSCAASGFTFSTYAMHWVRQASGKGLEWVGRIRTKSSNYATYYAASVKGRFTISRDDSKNTAYLQMNSLKTEDTAVYYCTRDMGIRRQFAYWGQGTLVTVSS
VL: DIVLTQSPDSLAVSLGERATINCRASESVDTFDYSFLHWYQQKPGQPPKLLIYRASNLESGVPDRFSGSGSGTDFTLTISSLQAEDVAVYYCQQSNEDPYTFGQGTKLEIKR

— patent publication US20200255529A1
